Experimental data: PubChem BioAssay AID2400 (Broad Institute, 2010)
The list shows a part of the results. The source made no clear call on entries shown without one.

Test: steroid-induced GRE reporter decrease in yeast – S. cerevisiae, luminescence, Hsp90 inhibitor project, dose response (AID 2400)
Conditions: S. cerevisiae GRE-beta-galactosidase reporter, 75 min

Compound	activity change, negative = inhibition (at 15 µM (top of the series))	activity change, negative = inhibition (at 16 µM (top of the series))
O=C(NNC1=C(C(=O)C(F)(F)F)CCC1)c1ccc(Br)cc1	-47.5%	
O=C(NNC1=C(C(=O)C(F)(F)F)CCC1)c1ccc(Cl)cc1	-37.2%	
C[C@@H]1C[C@@H]2O[C@H]2/C=C\C=C\C(=O)Cc2c(Cl)c(O)cc(O)c2C(=O)O1		-45.3%
